Assay results taken from PMC4729865 (Nature Communications, 2016).
No constants are given. Whether binding was seen depends on the method and setting. For some of these results: Binding calls can cover weak binding; strength is not graded here. Sequences can lack the tags named with a protein. Blank lines part the entries; values can stand above or below the binder they belong to.

Experiments:
[1] = target: taxol-stabilized microtubules; assay: condition: Flag-Cep57-12A 0.05 μM, microtubules 1.0 μM; co-sedimentation; purified Cep57 protein incubated with or without taxol-stabilized microtubules (1.0 μM) in BRB80 buffer; 100,000g for 10 min at 25 °C; supernatant and pellet; both purified
[2] = target: taxol-stabilized microtubules; assay: co-sedimentation; purified Cep57 protein incubated with or without taxol-stabilized microtubules (1.0 μM) in BRB80 buffer; 100,000g for 10 min at 25 °C; supernatant and pellet; both purified
[3] = target: taxol-stabilized microtubules; assay: co-sedimentation; GST-Cep57 (195-500; 0.1 μM) and Flag-Mad1 (0.05 μM) together, with or without taxol-stabilized microtubules (1.0 μM) in BRB80 buffer; supernatant and pellet; anti-Flag western blotting; both purified

B1: Flag-Cep57-12A (protein, UniProt Q86XR8 1-500)
chain: MAAASVSAASGSHLSNSFAEPSRSNGSMVRHSSSPYVVYPSDKPFLNSDLRRSPSKPTLAYPESNSRAIFSALKNLQDKIRRLELERIQAEESVKTLSRETIEYKKVLDEQIQERENSKNEESKHNQELTSQLLAAENKCNLLEKQLEYMRNMIKHAEMERTSVLEKQVSLERERQHDQTHVQSQLEKLDLLEQEYNKLTTMQALAEKKMQELEAKLHEEEQERKRMQAKAAELQTGLETNRLIFEDKATPCVPNARRIKKKKSKPPEKKSSRNYFGAQPHYRLCLGDMPFVAGKSTSPSHAVVANVQLVLHLMKQHSKALCNDRVINSIPLAKQVSSRGGKSKKLSVTPPSSNGINEELSEVLQTLQDEFGQMSFDHQQLAKLIQESPTVELKDKLECELEALVGRMEAKANQITKVRKYQAQLEKQKLEAQAAELAATAATLDEERNSSSRSGITGTTNKKDFMALAPGEAAAANLQLLKDMQSIQNSLQSSSLCWDY
binding [1]: no binding

B4: Flag-Mad1 (protein, UniProt Q9Y6D9 1-718)
chain: MEDLGENTMVLSTLRSLNNFISQRVEGGSGLDISTSAPGSLQMQYQQSMQLEERAEQIRSKSHLIQVEREKMQMELSHKRARVELERAASTSARNYEREVDRNQELLTRIRQLQEREAGAEEKMQEQLERNRQCQQNLDAASKRLREKEDSLAQAGETINALKGRISELQWSVMDQEMRVKRLESEKQELQEQLDLQHKKCQEANQKIQELQASQEARADHEQQIKDLEQKLSLQEQDAAIVKNMKSELVRLPRLERELKQLREESAHLREMRETNGLLQEELEGLQRKLGRQEKMQETLVGLELENERLLAKLQSWERLDQTMGLSIRTPEDLSRFVVELQQRELALKDKNSAVTSSARGLEKARQQLQEELRQVSGQLLEERKKRETHEALARRLQKRVLLLTKERDGMRAILGSYDSELTPAEYSPQLTRRMREAEDMVQKVHSHSAEMEAQLSQALEELGGQKQRADMLEMELKMLKSQSSSAEQSFLFSREEADTLRLKVEELEGERSRLEEEKRMLEAQLERRALQGDYDQSRTKVLHMSLNPTSVARQRLREDHSQLQAECERLRGLLRAMERGGTVPADLEAAAASLPSSKEVAELKKQVESAELKNQRLKEVFQTKIQEFRKACYTLTGYQIDITTENQYRLTSLYAEHPGDCLIFKATSPSGSKMQLLETEFSHTVGELIEVHLRRQDSIPAFLSSLTLELFSRQTVA
binding [3]: no binding (tested: Flag-Mad1 0.05 μM, microtubules 1.0 μM)

Other lines, results leading:

binding [2]: binds
B2: GST-Cep57 (195–500 amino acids) (domain or fragment, human, UniProt Q86XR8 195-500, looked up)
chain: EYNKLTTMQALAEKKMQELEAKLHEEEQERKRMQAKAAELQTGLETNRLIFEDKATPCVPNARRIKKKKSKPPEKKSSRNYFGAQPHYRLCLGDMPFVAGKSTSPSHAVVANVQLVLHLMKQHSKALCNDRVINSIPLAKQVSSRGGKSKKLSVTPPSSNGINEELSEVLQTLQDEFGQMSFDHQQLAKLIQESPTVELKDKLECELEALVGRMEAKANQITKVRKYQAQLEKQKLEKQKKELKATKKTLDEERNSSSRSGITGTTNKKDFMKLRPGEKRRKNLQLLKDMQSIQNSLQSSSLCWDY
notes: also called C terminus of Cep57; C-terminal Cep57; source: E. coli, purified (Glutathione Sepharose 4B); not shown: GST, N-terminal, kept

binding [2]: binds
B3: Flag-Cep57 (natural protein, human, UniProt Q86XR8 1-500, looked up)
chain: MAAASVSAASGSHLSNSFAEPSRSNGSMVRHSSSPYVVYPSDKPFLNSDLRRSPSKPTLAYPESNSRAIFSALKNLQDKIRRLELERIQAEESVKTLSRETIEYKKVLDEQIQERENSKNEESKHNQELTSQLLAAENKCNLLEKQLEYMRNMIKHAEMERTSVLEKQVSLERERQHDQTHVQSQLEKLDLLEQEYNKLTTMQALAEKKMQELEAKLHEEEQERKRMQAKAAELQTGLETNRLIFEDKATPCVPNARRIKKKKSKPPEKKSSRNYFGAQPHYRLCLGDMPFVAGKSTSPSHAVVANVQLVLHLMKQHSKALCNDRVINSIPLAKQVSSRGGKSKKLSVTPPSSNGINEELSEVLQTLQDEFGQMSFDHQQLAKLIQESPTVELKDKLECELEALVGRMEAKANQITKVRKYQAQLEKQKLEKQKKELKATKKTLDEERNSSSRSGITGTTNKKDFMKLRPGEKRRKNLQLLKDMQSIQNSLQSSSLCWDY
notes: Cep57 (translokin), human; cDNA amplified from a HeLa cell cDNA library; also called purified Cep57 from HEK293T cells; source: HEK293T, purified (anti-Flag beads, 600 mM NaCl wash, eluted by 3 x Flag peptides); not shown: Flag, N-terminal, kept
